These are yes or no findings as the source states them, for the method shown. Sequences can lack the tags named with a protein.
How the values were obtained:
Assay in all cases: two-hybrid; pairwise tests: pNLX3-based (LexA) and pGAD-based constructs, L40 mated with AMR70 or L40 co-transformed; His+ and LacZ+, growth in selective medium
[1] = target: T1, XRLIP(1–323), LexA fusion for two-hybrid (Xenopus laevis) (UniProt Q9PT60)
T1 sequence: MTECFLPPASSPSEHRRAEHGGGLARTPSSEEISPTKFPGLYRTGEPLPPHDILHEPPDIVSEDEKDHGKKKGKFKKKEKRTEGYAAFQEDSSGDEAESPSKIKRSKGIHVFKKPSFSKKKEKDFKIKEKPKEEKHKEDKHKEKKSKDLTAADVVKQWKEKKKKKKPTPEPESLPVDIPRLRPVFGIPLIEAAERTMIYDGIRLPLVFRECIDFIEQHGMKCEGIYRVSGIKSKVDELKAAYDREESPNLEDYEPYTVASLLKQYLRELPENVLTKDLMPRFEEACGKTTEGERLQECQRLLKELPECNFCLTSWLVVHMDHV

[2] = target: T2, XRLIP 172-Cter (Δ475–492), LexA fusion for two-hybrid (Xenopus laevis) (UniProt Q9PT60)
T2 sequence: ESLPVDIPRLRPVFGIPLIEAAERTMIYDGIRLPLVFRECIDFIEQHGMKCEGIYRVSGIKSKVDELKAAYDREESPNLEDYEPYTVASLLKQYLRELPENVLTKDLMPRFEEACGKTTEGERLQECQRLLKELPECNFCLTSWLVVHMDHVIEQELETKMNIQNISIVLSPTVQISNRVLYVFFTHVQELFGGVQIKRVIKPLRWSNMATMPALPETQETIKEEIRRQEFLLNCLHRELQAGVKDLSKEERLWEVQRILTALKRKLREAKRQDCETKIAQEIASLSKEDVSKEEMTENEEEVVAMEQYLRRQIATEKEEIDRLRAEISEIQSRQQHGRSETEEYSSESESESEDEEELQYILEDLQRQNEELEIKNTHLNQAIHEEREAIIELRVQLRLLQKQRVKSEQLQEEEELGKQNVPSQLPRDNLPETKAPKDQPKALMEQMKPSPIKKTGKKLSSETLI

[3] = target: T3, XRLIP(469-Cter), LexA fusion for two-hybrid (Xenopus laevis) (UniProt Q9PT60)
T3 sequence: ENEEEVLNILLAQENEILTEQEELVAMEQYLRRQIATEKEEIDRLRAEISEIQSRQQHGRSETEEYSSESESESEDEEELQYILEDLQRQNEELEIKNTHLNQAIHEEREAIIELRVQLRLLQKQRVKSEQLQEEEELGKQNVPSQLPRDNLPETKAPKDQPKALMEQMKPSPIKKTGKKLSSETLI

[4] = target: T4, XRLIP(172–495), LexA fusion for two-hybrid (Xenopus laevis) (UniProt Q9PT60)
T4 sequence: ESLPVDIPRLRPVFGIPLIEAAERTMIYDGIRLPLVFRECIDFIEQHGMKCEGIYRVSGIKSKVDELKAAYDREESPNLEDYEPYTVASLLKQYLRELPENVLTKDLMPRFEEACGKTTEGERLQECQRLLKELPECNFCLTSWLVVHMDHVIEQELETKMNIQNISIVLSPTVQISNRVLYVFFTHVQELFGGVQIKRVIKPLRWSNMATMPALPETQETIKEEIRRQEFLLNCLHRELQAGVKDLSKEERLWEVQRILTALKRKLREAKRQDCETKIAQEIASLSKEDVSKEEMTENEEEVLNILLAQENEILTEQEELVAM

[5] = target: T5, Xenopus RLIP (XRLIP), LexA fusion for two-hybrid (Xenopus laevis) (UniProt Q9PT60)
T5 sequence: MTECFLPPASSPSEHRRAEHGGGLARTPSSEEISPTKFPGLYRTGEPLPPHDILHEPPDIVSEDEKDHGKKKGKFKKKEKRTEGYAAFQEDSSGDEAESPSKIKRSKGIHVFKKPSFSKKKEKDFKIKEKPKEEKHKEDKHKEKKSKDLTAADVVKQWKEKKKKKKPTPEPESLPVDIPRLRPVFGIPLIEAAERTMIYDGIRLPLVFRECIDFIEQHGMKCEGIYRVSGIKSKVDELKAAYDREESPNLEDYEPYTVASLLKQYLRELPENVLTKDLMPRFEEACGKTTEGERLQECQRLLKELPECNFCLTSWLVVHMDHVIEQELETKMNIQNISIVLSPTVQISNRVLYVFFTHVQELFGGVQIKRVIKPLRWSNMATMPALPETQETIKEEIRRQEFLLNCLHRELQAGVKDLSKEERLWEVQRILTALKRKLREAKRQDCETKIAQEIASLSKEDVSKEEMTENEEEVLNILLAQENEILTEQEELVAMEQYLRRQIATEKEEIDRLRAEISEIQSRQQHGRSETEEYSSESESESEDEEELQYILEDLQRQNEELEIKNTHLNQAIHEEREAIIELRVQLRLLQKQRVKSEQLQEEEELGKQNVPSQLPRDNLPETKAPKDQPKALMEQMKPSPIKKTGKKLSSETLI

[6] = target: T6, XRLIP(330-Cter), LexA fusion for two-hybrid (Xenopus laevis) (UniProt Q9PT60)
T6 sequence: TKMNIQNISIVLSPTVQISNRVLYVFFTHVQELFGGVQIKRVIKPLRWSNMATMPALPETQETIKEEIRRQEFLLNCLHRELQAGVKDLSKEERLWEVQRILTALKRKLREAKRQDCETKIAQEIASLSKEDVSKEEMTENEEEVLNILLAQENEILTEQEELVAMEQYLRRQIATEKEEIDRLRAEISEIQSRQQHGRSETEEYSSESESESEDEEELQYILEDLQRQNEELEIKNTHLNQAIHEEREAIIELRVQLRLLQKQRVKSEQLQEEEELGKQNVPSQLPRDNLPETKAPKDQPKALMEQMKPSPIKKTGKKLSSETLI

Measured: binding

Xreps1(ΔRLIP-BD), pGAD-GE two-hybrid fusion (Xenopus laevis) (domain or fragment)
no binding: all assays above
